Some results were stated once for a whole list of compounds, not compound by compound.
Key:
NANOG protein = NANOG protein knock-down, Western blot; type: cell-based, human; conditions: shRNA expressed from replication incompetent lentivector
NANOG and NANOGP8 = assay: NANOG/NANOGP8 mRNA knock-down by lentivector shRNA; type: cell-based, human; conditions: shRNA expressed from replication incompetent lentivector

| Substance | efficiencies for protein (degradation) (NANOG protein) | efficiencies for mRNA degradation (NANOG and NANOGP8) |
| --- | --- | --- |
| shNANOG-2: shRNA of SEQ ID NO: 12 (CCTGGAACAGTCCCTTCTATA) targeting NANOG exon 4, lentivector | 80-90% | 50-70% |
| shNANOG-1: shRNA of SEQ ID NO: 11 (GGGTTAAGCTGTAACATACTT) targeting the NANOG 3'UTR, in a GFP+ lentivector | 80-90% | 50-70% |
